According to PubChem BioAssay AID624297 (National Center for Advancing Translational Sciences (NCATS), 2012):
About 6,200 (1.8%) of roughly 340,000 compounds were called active. Inconclusive means that the source gave no clear call. Such entries were picked first, then a sample of the others. Calls follow the shape of the dose curve; as a rule, active = well fitted activation curve with a large enough effect; inconclusive = small, poorly fitted or top-dose-only effect; inactive = no such curve, though single readings can be large or run the other way. Where the call is inconclusive, the potency comes from a doubtful curve fit.

Assay: A quantitative high throughput screen for small molecules that induce DNA re-replication in SW480 colon adenocarcinoma cells. Also: nearly all actives have a fitted effect of over 55% in size. As to re-replication activation: % of control where 0% means no effect.
Conditions: Hoechst DNA content imaging, 48 h; re-replication activation: at 46.1 µM (top of the series) unless noted
How it was run: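 Quantitative HTS format with DMSO vehicle controls; 48 hr drug incubation at 37 C, then 40 min Hoechst staining and scanning imager measurement at 405 nm excitation.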
Potency is read from the fitted curve at half-maximal effect.

Row | SMILES | re-replication activation | Potency
1 | CC(=O)NC(CC(=O)NCCc1ccccc1)c1ccccc1 (centres undefined) | inactive: 0.24% | –
2 | CCOc1ccc(CCN2C(=S)N([C@@H](CC(C)C)CN3CCCC3CN3C(=S)NC[C@@H]3CC(C)C)C[C@@H]2CC(C)C)cc1 (some centres undefined) | – | inconclusive: 0.731 µM [activator, full curve, poor fit]
3 | Cc1ccc(C(=O)NNC(=S)NC(=O)c2ccc(Cl)cc2Cl)cc1 | – | inconclusive: 18.4 µM [activator, single point]
4 | CC(=O)NC(=S)Nc1ccccc1C(=O)NC1CCCCC1 | inactive: -2.59% | –
5 | Cc1sc(NC(=O)c2ccccc2)c(C(=O)NCCN(C)C)c1C | – | inconclusive: 20.6 µM [activator, single point]
6 | O=C(NC(=S)Nc1cccc(O)c1)c1cncc(Br)c1 | – | inconclusive: 29.1 µM [activator, single point]
7 | O=C(CN1C(=O)C(=O)N(C2CCCC2)C1=O)Nc1ccc(F)cc1F | inactive: -18.2% | –
8 | CC(C)CN1CCC(=O)NC1=S | – | inconclusive: 32.6 µM [activator, partial curve, poor fit]
9 | CCSc1ccccc1C(=O)Nc1ccc([N+](=O)[O-])cc1OC | inactive: 1.41% | –
10 | CC(=O)Nc1cccc(NC(=O)CSc2n[nH]c(-c3ccccc3)n2)c1 | inactive: 12.8% | –
11 | COc1ccc(OC(=O)c2cccc([N+](=O)[O-])c2)c(C(=O)/C=C/c2cccs2)c1 | – | inconclusive: 25.9 µM [activator, partial curve, poor fit]
12 | CCOc1ccc(NC(=S)NC(=O)c2ccco2)cc1 | inactive: -0.406% | –
13 | COc1cc(C#Cc2c(-c3cncn3C)n(C)c3ccc(Br)cc23)cc(OC)c1 | – | inconclusive: 29.1 µM [activator, single point]
14 | CCC(OC(=O)CN1C(=O)c2ccccc2C1=O)C(=O)NC1CCCC1 (centres undefined) | – | inconclusive: 0.366 µM [activator, partial curve, poor fit]
15 | O=C(CN1CCN(c2ccc(Cl)cc2)CC1)Nc1cccc(F)c1 | – | inconclusive: 5.17 µM [activator, full curve, poor fit]
16 | Cc1c(C(=O)NCc2ccccn2)sc2nc(-c3ccc(F)cc3)cn12 | inactive: -23.5% | –
17 | C=CCn1c(SCC(=O)NCCC2=CCCCC2)nc2ccc(Cl)cc2c1=O | – | inconclusive: 13 µM [activator, partial curve, poor fit]
18 | CCO[C@H]1OC(C(=O)N2CCOCC2)=C[C@@H](C2CC2)[C@@H]1CCCO | – | inconclusive: 0.116 µM [activator, full curve, poor fit]
19 | O=C(CSc1cccc[n+]1[O-])NN(c1ccccc1)c1ccccc1 | – | inconclusive: 7.31 µM [activator, partial curve, poor fit]
20 | O=C(NC(=S)NCC1CCCO1)C(c1ccccc1)c1ccccc1 (centres undefined) | – | inconclusive: 0.0146 µM [activator, full curve, poor fit]
21 | CCCc1[nH][nH]c(=O)c1C(c1cccc(Cl)c1)C(C#N)C#N (centres undefined) | – | inconclusive: 32.6 µM [activator, partial curve, poor fit]
22 | COc1ccc(Nc2nnc(SCc3cn4c(C)cccc4n3)s2)cc1 | – | inconclusive: 28.2 µM [activator, single point]

Row | SMILES | re-replication activation | Potency
23 | CCOc1ccc2c(c1)C(c1cccs1)=NNC(c1cccnc1)=N2 | – | inconclusive: 29.1 µM [activator, single point]
24 | CCOc1ccc(N=C(/C(C(=O)C(=O)N2CCOCC2)=C(\O)c2ccccc2)c2ccccc2)cc1 | inconclusive: 499% [activator] | –
25 | COc1ccc(C(CNC(=O)c2ccc(NS(=O)(=O)c3ccccc3)cc2)N2CCOCC2)cc1 (centres undefined) | – | inconclusive: 0.58 µM [activator, partial curve, poor fit]
26 | Cc1ccc(-c2cc(C(=O)Nc3nccs3)c3ccccc3n2)o1 | – | inconclusive: 25.9 µM [activator, single point]
27 | O=C(NC1CCCC1)C(c1ccc(F)cc1)N(C(=O)c1csnn1)C1CCCC1 (centres undefined) | inactive: -5.57% | –
28 | NC(=O)N/N=C(/CCCCCC/C(=N\NC(N)=O)c1ccccc1)c1ccccc1 | – | inconclusive: 25.9 µM [activator, single point]
29 | CCOC(=O)c1c(NC(=O)COC(=O)Cc2n[nH]c(=O)c3ccccc23)sc(C(=O)N(C)C)c1C | – | inconclusive: 29.1 µM [activator, single point]
30 | Cc1ccc(C(C)C)c(OCCCCN2CCNCC2)c1 | – | inconclusive: 18.4 µM [activator, partial curve, poor fit]
31 | CC(C)NC(=S)N/N=C1\CCCc2ccccc21 | – | inconclusive: 16.4 µM [activator, single point]
32 | O=C(N/N=C/c1ccc([N+](=O)[O-])o1)c1ccccc1NS(=O)(=O)c1cccs1 | – | inconclusive: 23.1 µM [activator, partial curve, poor fit]
33 | CCN(CC(=O)Nc1c(F)cccc1F)C(=O)c1ccccc1F | inactive: -0.895% | –
34 | NC(=S)Nc1nc2ccccc2s1 | – | inconclusive: 20.6 µM [activator, single point]
35 | Nc1ncnc(Nc2cccc(Cl)c2Cl)n1 | – | inconclusive: 23.1 µM [activator, single point]
36 | CC(C)OCCCn1c(NN)nc2ccccc2c1=O | – | inconclusive: 14.6 µM [activator, partial curve, poor fit]
37 | Cc1ccn2cc(-c3ccc(NC(=O)c4ccco4)cc3)nc2c1 | – | inconclusive: 23.1 µM [activator, single point]
38 | Cc1cccn2c(=O)c3cc(C(=O)NCc4ccco4)c(=N)n(C(C)C)c3nc12 | – | inconclusive: 2.31 µM [activator, full curve]
39 | CC(C)NC(=O)N1c2ccccc2Sc2ccccc21 | – | inconclusive: 20.6 µM [activator, partial curve, poor fit]
40 | COc1ccccc1N1CCN(C(=O)c2cc(=O)c3cc(C)cc(C)c3o2)CC1 | – | inconclusive: 18.4 µM [activator, partial curve, poor fit]
41 | Cc1cc(C)c(C)c(S(=O)(=O)N2CCN(CC(=O)c3c(N)n(Cc4ccccc4)c(=O)n(C)c3=O)CC2)c1C | – | inconclusive: 7.31 µM [activator, partial curve]
42 | Cc1cc2c3c([nH]c2cc1S(=O)(=O)N1CCC2(CC1)OCCO2)CC(C)(C)CC3=O | – | inconclusive: 29.1 µM [activator, single point]
43 | CCC1=Nc2cc(C(=O)O)ccc2Sc2ccc(Cl)cc21 | inactive: -2.42% | –
44 | COCCCn1cc(C(=O)c2cc(OC)ccc2OCC(=O)N2CCCCC2C)cc(C#N)c1=O (centres undefined) | inactive: -4.67% | –

Numbers 4–7, reprinted for reference:
Row | SMILES | re-replication activation | Potency
4 | CC(=O)NC(=S)Nc1ccccc1C(=O)NC1CCCCC1 | inactive: -2.59% | –
5 | Cc1sc(NC(=O)c2ccccc2)c(C(=O)NCCN(C)C)c1C | – | inconclusive: 20.6 µM [activator, single point]
6 | O=C(NC(=S)Nc1cccc(O)c1)c1cncc(Br)c1 | – | inconclusive: 29.1 µM [activator, single point]
7 | O=C(CN1C(=O)C(=O)N(C2CCCC2)C1=O)Nc1ccc(F)cc1F | inactive: -18.2% | –

Later entries:

Row | SMILES | re-replication activation | Potency
45 | CC1=C(C(=O)Nc2ccccn2)C(c2ccc(Cl)cc2)NC(=S)N1 (centres undefined) | – | inconclusive: 0.731 µM [activator, full curve, poor fit]
46 | C/C=C/C(=O)OCC(=O)Nc1ccc(OC)c(Cl)c1 | inactive: -0.977% | –
47 | O=C(O)c1ccc(Nc2ccc([N+](=O)[O-])c3nonc23)cc1 | – | inconclusive: 16.4 µM [activator, single point]
48 | CCN1CCN(c2ncnc3c2c(-c2ccccc2)cn3-c2ccc(F)cc2)CC1 | inactive: -5.75% | –
49 | Cc1ccc(Cn2c(=N)n(CC(=O)c3ccccc3)c3ccccc32)cc1 | – | inconclusive: 29.1 µM [activator, single point]
50 | CCC(C(=O)OCC(=O)Nc1c(C)nn(-c2ccccc2)c1C)c1ccccc1 (centres undefined) | – | inconclusive: 29.1 µM [activator, partial curve, poor fit]
51 | COc1ccc(C2=Nn3c(nnc3-c3ccncc3)SC2)cc1 | – | inconclusive: 18.4 µM [activator, single point]
52 | COC(=O)c1ccc(Nc2cc(C)nc(-c3ccccc3O)n2)cc1 | – | inconclusive: 29.1 µM [activator, single point]
53 | COc1ccc(NC(=O)c2cc3c(s2)CCC3)cc1S(=O)(=O)N1CCOCC1 | – | inconclusive: 29.1 µM [activator, partial curve, poor fit]
54 | CC(C)N(C(=O)[C@H]1C[C@H](CC(=O)NCc2ccco2)C(=O)N2CCc3c([nH]c4ccc(Cl)cc34)[C@]12C)C(C)C | inactive: 12% | –
55 | COc1ccc(NC(=O)Cn2c(C(C)C)nc(C)cc2=O)cc1Cl | – | inconclusive: 0.398 µM [activator, partial curve, poor fit]
56 | CCNC(=S)N(CCc1ccc(S(N)(=O)=O)cc1)C1CC(=O)N(c2ccccc2)C1=O (centres undefined) | – | inconclusive: 29.1 µM [activator, single point]
57 | COc1ccccc1C(=O)NCC(=O)OCC(=O)N(CC(C)C)c1c(N)n(Cc2ccccc2)c(=O)[nH]c1=O | inactive: 2.16% | –
58 | O=C1/C(=C/c2cccnc2)SC(=S)N1c1ccc(O)cc1 | – | inconclusive: 32.6 µM [activator, partial curve, poor fit]
59 | CCOc1ccccc1C1C(C#N)=C(N)Oc2cc(N)ccc21 (centres undefined) | – | inconclusive: 23.1 µM [activator, single point]
60 | O=C(c1ccc(S(=O)(=O)c2cccc(Cl)c2)c([N+](=O)[O-])c1)N1CCN(Cc2ccccc2)CC1 | – | inconclusive: 29.1 µM [activator, single point]
61 | Cn1c(=O)n(C)c2cc(NC(=O)CCl)ccc21 | – | inconclusive: 20.6 µM [activator, single point]
62 | CCCN1CCC(=O)N([C@H](CN=[N+]=[N-])Cc2ccccc2)CC1 | – | inconclusive: 0.731 µM [activator, single point]
63 | Cc1ccc(S(=O)(=O)N2CCCCC2C(=O)NCc2ccco2)cc1 (centres undefined) | – | inconclusive: 23.1 µM [activator, single point]
64 | Cc1cccn2c(=O)c3cc(C(=O)NC4CCCC4)c(=N)n(CCCN4CCOCC4)c3nc12 | – | active: 1.46 µM
